Results are given in words; binding and its absence hold for the method and conditions named. In cells and extracts the contact can be indirect. Some entries that bind do so weakly or less than the wild type. Tags and fused reporters may be left off the sequences shown.

Chains of the proteins cited; added tags and fusions are not shown.
UniProt P14618: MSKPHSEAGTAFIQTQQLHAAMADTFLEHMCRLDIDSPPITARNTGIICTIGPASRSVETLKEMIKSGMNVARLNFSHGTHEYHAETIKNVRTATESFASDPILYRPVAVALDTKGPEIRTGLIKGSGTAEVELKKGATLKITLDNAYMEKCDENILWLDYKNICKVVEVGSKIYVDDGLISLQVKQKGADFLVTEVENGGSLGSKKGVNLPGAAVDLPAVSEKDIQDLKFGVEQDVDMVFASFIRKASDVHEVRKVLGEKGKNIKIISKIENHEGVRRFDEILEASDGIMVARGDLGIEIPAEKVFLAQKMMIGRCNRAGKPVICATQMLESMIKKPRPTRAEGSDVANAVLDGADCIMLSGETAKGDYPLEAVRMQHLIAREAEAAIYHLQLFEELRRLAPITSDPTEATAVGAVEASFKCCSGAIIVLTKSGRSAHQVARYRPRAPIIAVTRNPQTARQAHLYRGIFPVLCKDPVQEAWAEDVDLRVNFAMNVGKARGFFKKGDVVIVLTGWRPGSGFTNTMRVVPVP

The target in assay [1] is T1, VDAC3 (partner of HA-PKM2 in the S-tag pull-down of Fig. 6b) (human) (UniProt Q9Y277).
T1 sequence: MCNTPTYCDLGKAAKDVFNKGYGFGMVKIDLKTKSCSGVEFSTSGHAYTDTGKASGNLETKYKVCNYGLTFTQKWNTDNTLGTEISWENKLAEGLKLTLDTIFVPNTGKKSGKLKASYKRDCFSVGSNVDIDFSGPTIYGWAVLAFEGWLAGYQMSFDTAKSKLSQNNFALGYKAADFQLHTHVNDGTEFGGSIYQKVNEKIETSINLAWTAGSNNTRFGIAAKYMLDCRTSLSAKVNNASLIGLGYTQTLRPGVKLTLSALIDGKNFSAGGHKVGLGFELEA
The assay is described as follows: pull-down; S-protein agarose pull-down of the S-tagged partner from whole cellular extracts (RIPA buffer) of transfected HCT116 cells, 3 h at 4 °C, western blot; Fig. 2g with or without 8 h glucose starvation. For orientation: Immunoblotting shows a protein as a band on a membrane.

In assay [2] the target is T1, VDAC3 (partner of HA-PKM2 in the S-tag pull-down of Fig. 6b) (human). In words: condition: only after 8 h 20 µM compound 8 treatment of the cells; pull-down; as a6, cells treated with 20 µM compound 8 for 8 h before harvest.
Assay [3] has as its target T2, voltage-dependent anion channel 3 (VDAC3), endogenous (human (endogenous in HCT116)) (UniProt Q9Y277).
T2 sequence: T1 sequence
In words: co-IP; endogenous proteins; HCT116 whole cellular extracts in RIPA buffer, immunoprecipitation with anti-VDAC3 antibody or control IgG, protein A/G agarose, 4 °C, western blot; also in a second cancer cell line.

On to “HA-tagged PKM2 (from UniProt P14618 1-531) (enzyme)”, for which the binding entry was “binds” in assay [1] and “no binding” in assay [2].

On to “PKM2, endogenous (from UniProt P14618 1-531) (enzyme)”, for which the binding result in assay [3] is reported as “binds”.

The values above are taken from publication PMC6382874, “Succinylation-dependent mitochondrial translocation of PKM2 promotes cell survival in response to nutritional stress” (Cell Death & Disease, 2019).
